Source: PubChem BioAssay AID1224826 (NIAID, 2016)

Purpose: 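Knock-downs that raise or lower Tnf reporter signal after endotoxin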 (primary screen)
Cells: RAW264.7 G9 macrophages from mouse bearing reporters for p65 (GFP) and the Tnf promoter (mCherry)
Knock-down reagent: siRNA pool against mouse genes, 100 nM
Duration: 16 h of LPS stimulation, after 2 days of siRNA transfection
Conditions: bacterial lipopolysaccharide (Salmonella minnesota R595), 10 ng/ml
Detection: 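Nuclear mCherry signal of the Tnf promoter reporter measured by imaging after background removal, scaled to each plate median and turned into robust z-scores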
Reading the numbers: Tnf reporter robust z-score: higher = stronger Tnf promoter reporter signal after LPS; Tnf reporter intensity: higher = stronger Tnf promoter reporter signal
Call rule: 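Called active when robust z-score is at most -1.3, matching the median of the Tlr4 knock-down control, or over 3; control wells and wells with under 50 cells never active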
Calls: active = Tnf reporter clearly lowered or raised; inactive = no clear change in Tnf reporter
Shown is a random part of about 17,000 reagents tested. About 1,110 of them (6.6%) count as active. 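Active means lowered or raised reporter signal; replicate intensities are raw and not normalised per plate.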 The numbers tell different reagents against one gene apart. Some reagents were tested in more than one well and are listed for each.

no.	Target gene	reagent	Tnf reporter robust z-score	fewer than 50 cells in well	Tnf reporter intensity, replicate 1	Tnf reporter intensity, replicate 2	activity call
1	Dsg2 (desmoglein 2)	1	-0.33	enough cells in well	220	169	inactive
2	Rgs10 (regulator of G-protein signalling 10)	1	2.26	enough cells in well	220	230	inactive
3	Cul2 (cullin 2)	1	-0.26	enough cells in well	220	179	inactive
4	Sprr4 (small proline-rich protein 4)	1	0.46	enough cells in well	133	98.8	inactive
5	Slc15a4	1	0.18	enough cells in well	129	83.5	inactive
6	Or2ah1 (olfactory receptor family 2 subfamily AH member 1)	1	0.01	enough cells in well	191	149	inactive
7	Casz1 (castor zinc finger 1)	1	1.32	enough cells in well	305	292	inactive
8	Nrip3 (nuclear receptor interacting protein 3)	1	-1.06	enough cells in well	127	52.7	inactive
9	Brd10 (bromodomain containing 10)	1	1.33	enough cells in well	293	240	inactive
10	Aimp1	1	-0.06	enough cells in well	274	209	inactive
11	Cep41 (centrosomal protein 41)	1	-0.71	enough cells in well	97.6	61.7	inactive
12	Or51a39 (olfactory receptor family 51 subfamily A member 39)	1	-0.77	enough cells in well	142	83.9	inactive
13	Slco1a5	1	-0.52	enough cells in well	86.7	78.2	inactive
14	Slc17a9	1	0	enough cells in well	215	198	inactive
15	Lalba (lactalbumin, alpha)	1	0.05	enough cells in well	203	48.2	inactive
16	Or8d2 (olfactory receptor family 8 subfamily D member 2)	1	-0.43	enough cells in well	124	116	inactive
17	Gng12 (guanine nucleotide binding protein (G protein), gamma 12)	1	-0.02	enough cells in well	199	320	inactive
18	Faxc (failed axon connections homolog)	1	0.95	enough cells in well	219	208	inactive
19	BC053071	1	0.74	enough cells in well	140	203	inactive
20	Plekha1 (pleckstrin homology domain containing A1)	1	0.5	enough cells in well	180	190	inactive
21	Or5b102 (olfactory receptor family 5 subfamily B member 102)	1	-0.71	enough cells in well	124	101	inactive
22	Rtn4rl2 (reticulon 4 receptor-like 2)	1	-0.51	enough cells in well	282	153	inactive
23	Gpbp1l1 (GC-rich promoter binding protein 1-like 1)	1		fewer than 50 cells per well; well left out of calls	218	161	inactive
24	Als2cl (ALS2 C-terminal like)	1	0.35	enough cells in well	226	237	inactive
25	Recql4 (RecQ protein-like 4)	1	0.31	enough cells in well	347	222	inactive
26	Fcrl1 (Fc receptor-like 1)	1	-0.7	enough cells in well	133	107	inactive
27	Gtf2a1l (general transcription factor IIA, 1-like)	1	-0.94	enough cells in well	158	177	inactive
28	Mmrn1 (multimerin 1)	1	-0.03	enough cells in well	227	232	inactive
29	Casp1 (caspase 1)	1	-0.5	enough cells in well	122	133	inactive
30	Ppp1r16a (protein phosphatase 1, regulatory subunit 16A)	1	0.15	enough cells in well	294	171	inactive
31	Pcdha12 (protocadherin alpha 12)	1	1.43	enough cells in well	219	196	inactive
32	Csprs (component of Sp100-rs)	1	0.94	enough cells in well	256	218	inactive
33	Ctla4 (cytotoxic T-lymphocyte-associated protein 4)	1	1.35	enough cells in well	295	343	inactive
34	Mrps6 (mitochondrial ribosomal protein S6)	1	0.13	enough cells in well	246	105	inactive
35	Lat2 (linker for activation of T cells family, member 2)	1	1.32	enough cells in well	198	160	inactive
36	Lsg1 (large 60S subunit nuclear export GTPase 1)	1	-0.26	enough cells in well	175	145	inactive
37	Slc7a14	1	0.45	enough cells in well	136	176	inactive
38	Timm8a1 (translocase of inner mitochondrial membrane 8A1)	1	1.73	enough cells in well	360	218	inactive
39	Cenpx (centromere protein X)	1	-0.94	enough cells in well	75.3	54.7	inactive
40	Rpl3l (ribosomal protein L3-like)	1	1.09	enough cells in well	175	175	inactive
41	Fbxo4 (F-box protein 4)	1		fewer than 50 cells per well; well left out of calls	100	61.6	inactive
42	Fbxo4 (F-box protein 4)	2	0.15	enough cells in well	234	249	inactive
43	Or52e15 (olfactory receptor family 52 subfamily E member 15)	1	-1.74	enough cells in well	42.4	46	active
44	Pth (parathyroid hormone)	1	-0.34	enough cells in well	319	56.2	inactive
45	Zfp512 (zinc finger protein 512)	1	-0.8	enough cells in well	94	87.1	inactive
46	Mrgpra8 (MAS-related GPR, member A8)	1	1.23	enough cells in well	365	126	inactive
47	Ska1 (spindle and kinetochore associated complex subunit 1)	1		fewer than 50 cells per well; well left out of calls	131	52.2	inactive
48	Acnat2 (acyl-coenzyme A amino acid N-acyltransferase 2)	1	0.17	enough cells in well	165	198	inactive
49	Gzmc (granzyme C)	1	-1.15	enough cells in well	171	86.7	inactive
50	Gpr173 (G-protein coupled receptor 173)	1	-0.18	enough cells in well	177	321	inactive
51	Gpr173 (G-protein coupled receptor 173)	1	0.55	enough cells in well	155	80.4	inactive
52	Dolpp1 (dolichyl pyrophosphate phosphatase 1)	1	-0.47	enough cells in well	181	188	inactive
53	Obsl1 (obscurin-like 1)	1	-0.94	enough cells in well	142	105	inactive
54	4921509C19Rik (RIKEN cDNA 4921509C19 gene)	1	0.38	enough cells in well	178	76.4	inactive
55	Hap1 (huntingtin-associated protein 1)	1	0.04	enough cells in well	243	190	inactive
56	Cd226 (CD226 antigen)	1	-0.47	enough cells in well	9.02	136	inactive
57	Trim26 (tripartite motif-containing 26)	1	0.24	enough cells in well	234	266	inactive
58	Or5e1 (olfactory receptor family 5 subfamily E member 1)	1	1.62	enough cells in well	229	183	inactive

Reformatted: 9 of the entries above.
Target gene	reagent	Tnf reporter robust z-score	fewer than 50 cells in well	Tnf reporter intensity, replicate 1	Tnf reporter intensity, replicate 2	activity call
Cul2 (cullin 2)	1	-0.26	enough cells in well	220	179	inactive
Sprr4 (small proline-rich protein 4)	1	0.46	enough cells in well	133	98.8	inactive
Slc15a4	1	0.18	enough cells in well	129	83.5	inactive
Or2ah1 (olfactory receptor family 2 subfamily AH member 1)	1	0.01	enough cells in well	191	149	inactive
Casz1 (castor zinc finger 1)	1	1.32	enough cells in well	305	292	inactive
Nrip3 (nuclear receptor interacting protein 3)	1	-1.06	enough cells in well	127	52.7	inactive
Brd10 (bromodomain containing 10)	1	1.33	enough cells in well	293	240	inactive
Aimp1	1	-0.06	enough cells in well	274	209	inactive
Cep41 (centrosomal protein 41)	1	-0.71	enough cells in well	97.6	61.7	inactive
